Results published in paper PMC7395068, “The evolution of strategies to minimise the risk of human drug-induced liver injury (DILI) in drug discovery and development” (Archives of Toxicology, 2020).
Where two headings read alike, the source gives them in different places.

Experiments:
hLiMTs = assay: Combined HCI (HCS) and cellular ATP 3D assay in hLiMTs
HepaRG spheroids = assay: Combined HCI (HCS) and cellular ATP 3D assay in HepaRG spheroids

Compound: CC(=O)Oc1ccccc1C(=O)O [acetylsalicylic acid]
- First responding feature (HCS endpoint MEC) (hLiMTs; hLiMT's): GSH

Compound: NCCCC(O)(P(=O)(O)O)P(=O)(O)O [alendronate]
- First responding feature (HCS endpoint MEC) (HepaRG spheroids; hepaRG spheroid): GSH

Compound: Cn1cnc([N+](=O)[O-])c1Sc1ncnc2nc[nH]c12 [azathioprine]
- First responding feature (HCS endpoint MEC) (HepaRG spheroids; hepaRG spheroid): MMP

Compound: COc1ccccc1Oc1c(NS(=O)(=O)c2ccc(C(C)(C)C)cc2)nc(-c2ncccn2)nc1OCCO [bosentan]
- First responding feature (HCS endpoint MEC) (hLiMTs; hLiMT's): MMP
- First responding feature (HCS endpoint MEC) (HepaRG spheroids; hepaRG spheroid): MMP

Compound: NC(=O)N1c2ccccc2C=Cc2ccccc21 [carbamazepine, reference compound]
- First responding feature (HCS endpoint MEC) (hLiMTs; hLiMT's): GSH
- First responding feature (HCS endpoint MEC) (HepaRG spheroids; hepaRG spheroid): GSH

Compound: CN(C)CCC(c1ccc(Cl)cc1)c1ccccn1 (stereo not drawn) [chlorpheniramine]
- First responding feature (HCS endpoint MEC) (hLiMTs; hLiMT's): GSH

Compound: CN1CCN(C2=Nc3cc(Cl)ccc3Nc3ccccc32)CC1 [clozapine]
- First responding feature (HCS endpoint MEC) (hLiMTs; hLiMT's): GSH

Compound: O=P1(N(CCCl)CCCl)NCCCO1 (stereo not drawn) [cyclophosphamide, reference compound]
- First responding feature (HCS endpoint MEC) (hLiMTs): GSH

Compound: O=C1CN(/N=C/c2ccc(-c3ccc([N+](=O)[O-])cc3)o2)C(O)=N1 [dantrolene]
- First responding feature (HCS endpoint MEC) (hLiMTs; hLiMT's): MMP

Compound: O=C(O)Cc1ccccc1Nc1c(Cl)cccc1Cl [diclofenac]
- First responding feature (HCS endpoint MEC) (HepaRG spheroids; hepaRG spheroid): GSH

Compound: COc1cc2c(cc1OC)C(=O)C(CC1CCN(Cc3ccccc3)CC1)C2 (stereo not drawn) [donepezil]
- First responding feature (HCS endpoint MEC) (hLiMTs; hLiMT's): MMP

Compound: CCN(CC)C(=O)/C(C#N)=C/c1cc(O)c(O)c([N+](=O)[O-])c1 [entacapone]
- First responding feature (HCS endpoint MEC) (hLiMTs; hLiMT's): GSH
- First responding feature (HCS endpoint MEC) (HepaRG spheroids; hepaRG spheroid): GSH

Compound: O=c1[nH]c(=O)n([C@@H]2O[C@H](CO)[C@@H](O)[C@@H]2F)cc1I [fialuridine]
- First responding feature (HCS endpoint MEC) (HepaRG spheroids; hepaRG spheroid): GSH

Compound: COc1ccc2c(c1)c(CC(=O)O)c(C)n2C(=O)c1ccc(Cl)cc1 [indomethacin]
- First responding feature (HCS endpoint MEC) (hLiMTs; hLiMT's): MMP

Compound: CC(=O)N1CCN(c2ccc(OCC3COC(Cn4ccnc4)(c4ccc(Cl)cc4Cl)O3)cc2)CC1 (stereo not drawn) [ketoconazole, reference compound]
- First responding feature (HCS endpoint MEC) (hLiMTs; hLiMT's): GSH

Compound: CS(=O)(=O)CCNCc1ccc(-c2ccc3ncnc(Nc4ccc(OCc5cccc(F)c5)c(Cl)c4)c3c2)o1 [lapatinib]
- First responding feature (HCS endpoint MEC) (HepaRG spheroids; hepaRG spheroid): GSH

Compound: N[C@@H](Cc1cc(I)c(Oc2ccc(O)c(I)c2)c(I)c1)C(=O)O [liothyronine]
- First responding feature (HCS endpoint MEC) (HepaRG spheroids; hepaRG spheroid): SIZE

Compound: CNC1(C)C2CCC(C2)C1(C)C (stereo not drawn) [mecamylamine]
- First responding feature (HCS endpoint MEC) (HepaRG spheroids; hepaRG spheroid): MMP

Compound: CN(Cc1cnc2nc(N)nc(N)c2n1)c1ccc(C(=O)N[C@@H](CCC(=O)O)C(=O)O)cc1 [methotrexate, reference compound]
- First responding feature (HCS endpoint MEC) (hLiMTs; hLiMT's): GSH
- First responding feature (HCS endpoint MEC) (HepaRG spheroids; hepaRG spheroid): GSH

Compound: Nc1cc(N2CCCCC2)nc(N)[n+]1[O-] [minoxidil]
- First responding feature (HCS endpoint MEC) (hLiMTs; hLiMT's): MMP

Compound: CO[C@@]12[C@H](COC(N)=O)C3=C(C(=O)C(C)=C(N)C3=O)N1C[C@@H]1N[C@@H]12 [mitomycin C]
- First responding feature (HCS endpoint MEC) (HepaRG spheroids): GSH

Compound: CCc1nn(CCCN2CCN(c3cccc(Cl)c3)CC2)c(=O)n1CCOc1ccccc1 [nefazodone, reference compound]
- First responding feature (HCS endpoint MEC) (hLiMTs; hLiMT's): GSH

Compound: O=C1CN(/N=C/c2ccc([N+](=O)[O-])o2)C(=O)N1 [nitrofurantoin]
- First responding feature (HCS endpoint MEC) (HepaRG spheroids; hepaRG spheroid): MMP

Compound: CCN(CC)CC#CCOC(=O)C(O)(c1ccccc1)C1CCCCC1 (stereo not drawn) [oxybutynin]
- First responding feature (HCS endpoint MEC) (hLiMTs; hLiMT's): GSH

Compound: C1CCC(C(CC2CCCCN2)C2CCCCC2)CC1 (stereo not drawn) [perhexiline]
- First responding feature (HCS endpoint MEC) (hLiMTs; hLiMT's): MMP

Compound: CC(COc1ccccc1)N(CCCl)Cc1ccccc1 (stereo not drawn) [phenoxybenzamine]
- First responding feature (HCS endpoint MEC) (hLiMTs; hLiMT's): GSH

Compound: Cc1ccc(N(CC2=NCCN2)c2cccc(O)c2)cc1 [phentolamine]
- First responding feature (HCS endpoint MEC) (hLiMTs; hLiMT's): SIZE
- First responding feature (HCS endpoint MEC) (HepaRG spheroids; hepaRG spheroid): GSH

Compound: CCc1ccc(CCOc2ccc(CC3SC(=O)NC3=O)cc2)nc1 (stereo not drawn) [pioglitazone]
- First responding feature (HCS endpoint MEC) (hLiMTs; hLiMT's): GSH
- First responding feature (HCS endpoint MEC) (HepaRG spheroids; hepaRG spheroid): GSH

Compound: Cc1cc2c(cc1CC(=O)c1sccc1S(=O)(=O)Nc1onc(C)c1Cl)OCO2 [sitaxsentan]
- First responding feature (HCS endpoint MEC) (hLiMTs; hLiMT's): MMP
- First responding feature (HCS endpoint MEC) (HepaRG spheroids; hepaRG spheroid): MMP

Compound: [H]/N=C(/N)N[C@H]1[C@H](O)[C@@H](O)[C@H](O[C@@H]2O[C@@H](C)[C@](O)(C=O)[C@H]2O[C@@H]2O[C@@H](CO)[C@H](O)[C@@H](O)[C@@H]2NC)[C@@H](N/C(N)=N\[H])[C@@H]1O [streptomycin, reference compound]
- First responding feature (HCS endpoint MEC) (HepaRG spheroids; hepaRG spheroid): GSH

Compound: CCN(CC)CCNC(=O)c1c(C)[nH]c(/C=C2\C(=O)Nc3ccc(F)cc32)c1C [sunitinib]
- First responding feature (HCS endpoint MEC) (hLiMTs; hLiMT's): GSH
- First responding feature (HCS endpoint MEC) (HepaRG spheroids; hepaRG spheroid): GSH

Compound: Nc1c2c(nc3ccccc13)CCCC2 [tacrine, reference compound]
- First responding feature (HCS endpoint MEC) (HepaRG spheroids; hepaRG spheroid): GSH

Compound: Cc1ccc(C(=O)c2cc(O)c(O)c([N+](=O)[O-])c2)cc1 [tolcapone, reference compound]
- First responding feature (HCS endpoint MEC) (hLiMTs; hLiMT's): GSH
- First responding feature (HCS endpoint MEC) (HepaRG spheroids; hepaRG spheroid): GSH

Compound: Cc1c(C)c2c(c(C)c1O)CCC(C)(COc1ccc(CC3SC(=O)NC3=O)cc1)O2 (stereo not drawn) [troglitazone, reference compound]
- First responding feature (HCS endpoint MEC) (HepaRG spheroids; hepaRG spheroid): MMP

Compound: N[C@@H]1[C@H]2CN(c3nc4c(cc3F)c(=O)c(C(=O)O)cn4-c3ccc(F)cc3F)C[C@@H]12 [trovafloxacin]
- First responding feature (HCS endpoint MEC) (HepaRG spheroids; hepaRG spheroid): GSH

Compound: CCCC(CCC)C(=O)O [valproic acid]
- First responding feature (HCS endpoint MEC) (hLiMTs; hLiMT's): GSH
